# Laboratory results: the supplement of paper PMC7666118
# Sequences of proteins named here, by UniProt entry; tags and fusion partners are left off. A change or cut given only in a name is not applied to a line headed by its entry.
# UniProt Q53HC9: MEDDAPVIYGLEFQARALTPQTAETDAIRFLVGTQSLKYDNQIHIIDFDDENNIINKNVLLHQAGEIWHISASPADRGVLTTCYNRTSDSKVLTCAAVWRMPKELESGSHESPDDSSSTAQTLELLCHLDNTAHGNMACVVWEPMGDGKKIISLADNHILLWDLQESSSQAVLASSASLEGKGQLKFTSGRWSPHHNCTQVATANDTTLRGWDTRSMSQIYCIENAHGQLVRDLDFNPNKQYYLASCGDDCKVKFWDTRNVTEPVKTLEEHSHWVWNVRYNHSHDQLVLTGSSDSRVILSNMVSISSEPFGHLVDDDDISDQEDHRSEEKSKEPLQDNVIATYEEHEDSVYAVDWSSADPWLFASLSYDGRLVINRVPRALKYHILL
# UniProt O94782: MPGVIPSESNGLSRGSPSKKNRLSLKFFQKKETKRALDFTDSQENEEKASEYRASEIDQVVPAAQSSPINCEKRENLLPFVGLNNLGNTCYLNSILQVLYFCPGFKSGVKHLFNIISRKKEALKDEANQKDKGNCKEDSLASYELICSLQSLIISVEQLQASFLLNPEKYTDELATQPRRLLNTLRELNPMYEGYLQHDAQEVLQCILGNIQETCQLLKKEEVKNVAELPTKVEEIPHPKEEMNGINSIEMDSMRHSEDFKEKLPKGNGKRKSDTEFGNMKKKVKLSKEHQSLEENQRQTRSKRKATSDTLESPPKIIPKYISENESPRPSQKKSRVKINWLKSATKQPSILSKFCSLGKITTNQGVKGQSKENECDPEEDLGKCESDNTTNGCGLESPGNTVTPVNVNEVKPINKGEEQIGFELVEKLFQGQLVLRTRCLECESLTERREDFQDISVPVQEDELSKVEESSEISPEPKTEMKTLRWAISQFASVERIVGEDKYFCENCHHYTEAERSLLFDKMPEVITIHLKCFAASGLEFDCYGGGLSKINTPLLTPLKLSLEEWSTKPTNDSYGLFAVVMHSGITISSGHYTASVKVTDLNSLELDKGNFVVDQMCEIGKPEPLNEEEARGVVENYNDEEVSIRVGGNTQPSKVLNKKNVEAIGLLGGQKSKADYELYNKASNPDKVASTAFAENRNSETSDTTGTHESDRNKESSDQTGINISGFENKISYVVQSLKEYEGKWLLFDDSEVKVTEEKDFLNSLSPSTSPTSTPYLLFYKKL
# UniProt Q9Y5T5, whole entry, looked up: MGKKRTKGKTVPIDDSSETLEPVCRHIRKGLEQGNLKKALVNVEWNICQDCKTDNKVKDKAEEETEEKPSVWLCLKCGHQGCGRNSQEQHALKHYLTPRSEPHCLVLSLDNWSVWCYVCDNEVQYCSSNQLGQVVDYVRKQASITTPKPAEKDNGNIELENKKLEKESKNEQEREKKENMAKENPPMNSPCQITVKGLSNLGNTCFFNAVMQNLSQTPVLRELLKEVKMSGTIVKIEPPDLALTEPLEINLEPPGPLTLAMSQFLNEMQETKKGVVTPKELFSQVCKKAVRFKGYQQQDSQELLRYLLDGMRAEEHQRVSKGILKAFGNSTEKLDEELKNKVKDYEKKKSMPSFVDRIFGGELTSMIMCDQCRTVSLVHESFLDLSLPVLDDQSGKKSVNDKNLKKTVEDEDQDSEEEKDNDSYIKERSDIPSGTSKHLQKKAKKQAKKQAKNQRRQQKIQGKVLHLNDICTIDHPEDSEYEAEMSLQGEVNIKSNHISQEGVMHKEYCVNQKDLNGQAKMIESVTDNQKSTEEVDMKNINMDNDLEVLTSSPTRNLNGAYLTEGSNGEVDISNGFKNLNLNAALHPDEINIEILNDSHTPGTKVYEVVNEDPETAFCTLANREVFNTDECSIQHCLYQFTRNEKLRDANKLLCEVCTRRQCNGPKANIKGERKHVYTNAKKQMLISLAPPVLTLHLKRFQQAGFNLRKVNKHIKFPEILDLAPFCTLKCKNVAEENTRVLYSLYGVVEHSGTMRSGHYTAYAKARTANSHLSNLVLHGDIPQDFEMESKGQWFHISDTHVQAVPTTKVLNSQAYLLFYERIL
# UniProt Q9BSV6: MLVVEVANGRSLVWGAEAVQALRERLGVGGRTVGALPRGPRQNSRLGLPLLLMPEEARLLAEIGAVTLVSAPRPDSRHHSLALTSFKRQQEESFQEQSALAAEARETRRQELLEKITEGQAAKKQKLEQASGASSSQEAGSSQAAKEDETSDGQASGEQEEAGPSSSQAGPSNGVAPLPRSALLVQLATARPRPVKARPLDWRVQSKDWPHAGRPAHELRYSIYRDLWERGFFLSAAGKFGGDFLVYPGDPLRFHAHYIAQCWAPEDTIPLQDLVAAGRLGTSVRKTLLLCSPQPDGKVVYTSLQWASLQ
# UniProt Q15650: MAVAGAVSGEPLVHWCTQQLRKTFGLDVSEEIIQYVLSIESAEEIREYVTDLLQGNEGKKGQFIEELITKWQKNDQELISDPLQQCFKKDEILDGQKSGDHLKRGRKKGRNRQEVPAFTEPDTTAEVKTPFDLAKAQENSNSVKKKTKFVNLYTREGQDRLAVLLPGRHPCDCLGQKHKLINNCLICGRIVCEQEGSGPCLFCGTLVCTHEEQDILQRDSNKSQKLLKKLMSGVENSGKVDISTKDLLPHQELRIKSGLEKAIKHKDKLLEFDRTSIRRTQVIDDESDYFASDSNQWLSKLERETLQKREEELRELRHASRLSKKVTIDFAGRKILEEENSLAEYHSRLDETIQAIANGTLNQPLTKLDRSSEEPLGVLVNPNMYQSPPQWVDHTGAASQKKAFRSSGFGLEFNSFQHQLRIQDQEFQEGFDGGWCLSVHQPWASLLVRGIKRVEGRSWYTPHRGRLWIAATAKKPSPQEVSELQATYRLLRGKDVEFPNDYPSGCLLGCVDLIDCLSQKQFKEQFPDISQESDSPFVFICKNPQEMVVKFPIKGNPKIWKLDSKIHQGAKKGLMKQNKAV
# UniProt Q9BRZ2: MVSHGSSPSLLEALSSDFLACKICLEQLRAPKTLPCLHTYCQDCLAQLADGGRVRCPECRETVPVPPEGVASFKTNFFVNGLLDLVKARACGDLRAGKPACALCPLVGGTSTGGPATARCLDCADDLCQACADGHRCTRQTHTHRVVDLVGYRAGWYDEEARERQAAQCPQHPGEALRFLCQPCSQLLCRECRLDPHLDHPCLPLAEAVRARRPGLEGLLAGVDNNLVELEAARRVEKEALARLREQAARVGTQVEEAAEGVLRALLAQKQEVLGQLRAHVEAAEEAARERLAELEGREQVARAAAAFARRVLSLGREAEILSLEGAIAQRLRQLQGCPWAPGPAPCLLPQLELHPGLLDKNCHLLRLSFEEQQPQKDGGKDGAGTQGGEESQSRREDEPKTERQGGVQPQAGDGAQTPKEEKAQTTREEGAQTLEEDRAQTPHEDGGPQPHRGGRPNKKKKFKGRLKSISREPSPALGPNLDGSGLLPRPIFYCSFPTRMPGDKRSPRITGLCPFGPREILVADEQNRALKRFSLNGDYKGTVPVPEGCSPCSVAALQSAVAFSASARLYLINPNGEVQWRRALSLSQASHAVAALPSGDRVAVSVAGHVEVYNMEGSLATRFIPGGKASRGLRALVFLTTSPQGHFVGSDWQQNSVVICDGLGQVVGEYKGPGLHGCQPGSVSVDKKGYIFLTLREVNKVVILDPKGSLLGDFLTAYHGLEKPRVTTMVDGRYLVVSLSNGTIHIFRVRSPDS
# UniProt P19474, whole entry: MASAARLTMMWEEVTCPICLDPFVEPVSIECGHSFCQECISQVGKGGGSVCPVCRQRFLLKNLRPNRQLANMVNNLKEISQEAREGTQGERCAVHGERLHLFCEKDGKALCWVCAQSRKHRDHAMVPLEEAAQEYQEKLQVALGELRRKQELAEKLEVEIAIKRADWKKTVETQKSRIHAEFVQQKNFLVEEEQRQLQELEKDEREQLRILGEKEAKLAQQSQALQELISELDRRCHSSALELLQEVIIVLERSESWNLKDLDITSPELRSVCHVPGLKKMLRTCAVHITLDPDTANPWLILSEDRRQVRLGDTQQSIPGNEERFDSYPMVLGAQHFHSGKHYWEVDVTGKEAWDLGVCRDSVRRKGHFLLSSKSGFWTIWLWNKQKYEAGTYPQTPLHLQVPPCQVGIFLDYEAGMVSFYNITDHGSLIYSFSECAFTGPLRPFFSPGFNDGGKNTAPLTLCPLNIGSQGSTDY
# UniProt Q16762: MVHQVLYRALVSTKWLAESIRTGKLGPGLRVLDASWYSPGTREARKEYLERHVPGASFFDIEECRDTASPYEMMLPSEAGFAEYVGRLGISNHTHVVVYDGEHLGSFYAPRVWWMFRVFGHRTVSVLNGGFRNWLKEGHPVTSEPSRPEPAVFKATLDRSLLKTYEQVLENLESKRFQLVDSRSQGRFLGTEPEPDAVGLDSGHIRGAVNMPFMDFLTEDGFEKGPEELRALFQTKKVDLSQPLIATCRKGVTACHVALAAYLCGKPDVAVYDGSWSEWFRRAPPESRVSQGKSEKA
# UniProt Q2T9J0: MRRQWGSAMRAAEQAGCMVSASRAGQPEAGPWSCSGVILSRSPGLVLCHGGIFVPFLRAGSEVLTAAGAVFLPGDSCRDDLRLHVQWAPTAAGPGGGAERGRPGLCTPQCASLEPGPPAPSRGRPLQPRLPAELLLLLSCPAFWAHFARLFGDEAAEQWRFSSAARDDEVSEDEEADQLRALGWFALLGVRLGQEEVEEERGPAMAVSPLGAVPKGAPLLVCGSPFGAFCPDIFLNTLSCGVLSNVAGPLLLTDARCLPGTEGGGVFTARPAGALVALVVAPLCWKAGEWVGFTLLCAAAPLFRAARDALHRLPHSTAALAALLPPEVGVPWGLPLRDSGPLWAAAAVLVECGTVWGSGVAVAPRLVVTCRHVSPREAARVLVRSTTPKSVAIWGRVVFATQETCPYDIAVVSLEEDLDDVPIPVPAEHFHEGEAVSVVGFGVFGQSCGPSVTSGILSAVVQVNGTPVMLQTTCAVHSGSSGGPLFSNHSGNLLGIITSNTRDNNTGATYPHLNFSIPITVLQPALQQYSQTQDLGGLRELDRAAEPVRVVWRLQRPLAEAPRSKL
# Some of the results follow.
# Compound: COc1ccc(Cn2ccc3ccc(C(=O)NO)cc32)cc1
# Test: dose-dependent thermal stabilisation call (2D-TPP, DLPTP, 10% FDR) (binary (1 = stabilised)); higher = stabilised by the compound
# Conditions: system: HL-60 intact cells; concentration range 0.04-10 µM
row,Target,dose-dependent thermal stabilisation call
1,TSSC1 (UniProt Q53HC9),inactive: 0
2,TUFM (UniProt P49411),inactive: 0
3,USP1 (UniProt O94782),inactive: 0
4,USP16 (UniProt Q9Y5T5),inactive: 0
5,TSEN34 (UniProt Q9BSV6),inactive: 0
6,TRIP4 (UniProt Q15650),inactive: 0
7,TRIM56 (UniProt Q9BRZ2),inactive: 0
8,TRIM21 (UniProt P19474),inactive: 0
9,TST (UniProt Q16762),inactive: 0
10,TYSND1 (UniProt Q2T9J0),inactive: 0
